Laboratory results: publication PMC9613687
Results are given in words; binding and its absence hold for the method and conditions named. In cells and extracts the contact can be indirect. Some binding calls cover weakened binding; strength is not graded here. Where a sequence is shown, tags or fusion partners need not be part of it.

Chains of the proteins cited; added tags and fusions are not shown. Lines headed by an entry give the natural chain unless they say otherwise; changes in a name come on top.
UniProt Q8N3C0: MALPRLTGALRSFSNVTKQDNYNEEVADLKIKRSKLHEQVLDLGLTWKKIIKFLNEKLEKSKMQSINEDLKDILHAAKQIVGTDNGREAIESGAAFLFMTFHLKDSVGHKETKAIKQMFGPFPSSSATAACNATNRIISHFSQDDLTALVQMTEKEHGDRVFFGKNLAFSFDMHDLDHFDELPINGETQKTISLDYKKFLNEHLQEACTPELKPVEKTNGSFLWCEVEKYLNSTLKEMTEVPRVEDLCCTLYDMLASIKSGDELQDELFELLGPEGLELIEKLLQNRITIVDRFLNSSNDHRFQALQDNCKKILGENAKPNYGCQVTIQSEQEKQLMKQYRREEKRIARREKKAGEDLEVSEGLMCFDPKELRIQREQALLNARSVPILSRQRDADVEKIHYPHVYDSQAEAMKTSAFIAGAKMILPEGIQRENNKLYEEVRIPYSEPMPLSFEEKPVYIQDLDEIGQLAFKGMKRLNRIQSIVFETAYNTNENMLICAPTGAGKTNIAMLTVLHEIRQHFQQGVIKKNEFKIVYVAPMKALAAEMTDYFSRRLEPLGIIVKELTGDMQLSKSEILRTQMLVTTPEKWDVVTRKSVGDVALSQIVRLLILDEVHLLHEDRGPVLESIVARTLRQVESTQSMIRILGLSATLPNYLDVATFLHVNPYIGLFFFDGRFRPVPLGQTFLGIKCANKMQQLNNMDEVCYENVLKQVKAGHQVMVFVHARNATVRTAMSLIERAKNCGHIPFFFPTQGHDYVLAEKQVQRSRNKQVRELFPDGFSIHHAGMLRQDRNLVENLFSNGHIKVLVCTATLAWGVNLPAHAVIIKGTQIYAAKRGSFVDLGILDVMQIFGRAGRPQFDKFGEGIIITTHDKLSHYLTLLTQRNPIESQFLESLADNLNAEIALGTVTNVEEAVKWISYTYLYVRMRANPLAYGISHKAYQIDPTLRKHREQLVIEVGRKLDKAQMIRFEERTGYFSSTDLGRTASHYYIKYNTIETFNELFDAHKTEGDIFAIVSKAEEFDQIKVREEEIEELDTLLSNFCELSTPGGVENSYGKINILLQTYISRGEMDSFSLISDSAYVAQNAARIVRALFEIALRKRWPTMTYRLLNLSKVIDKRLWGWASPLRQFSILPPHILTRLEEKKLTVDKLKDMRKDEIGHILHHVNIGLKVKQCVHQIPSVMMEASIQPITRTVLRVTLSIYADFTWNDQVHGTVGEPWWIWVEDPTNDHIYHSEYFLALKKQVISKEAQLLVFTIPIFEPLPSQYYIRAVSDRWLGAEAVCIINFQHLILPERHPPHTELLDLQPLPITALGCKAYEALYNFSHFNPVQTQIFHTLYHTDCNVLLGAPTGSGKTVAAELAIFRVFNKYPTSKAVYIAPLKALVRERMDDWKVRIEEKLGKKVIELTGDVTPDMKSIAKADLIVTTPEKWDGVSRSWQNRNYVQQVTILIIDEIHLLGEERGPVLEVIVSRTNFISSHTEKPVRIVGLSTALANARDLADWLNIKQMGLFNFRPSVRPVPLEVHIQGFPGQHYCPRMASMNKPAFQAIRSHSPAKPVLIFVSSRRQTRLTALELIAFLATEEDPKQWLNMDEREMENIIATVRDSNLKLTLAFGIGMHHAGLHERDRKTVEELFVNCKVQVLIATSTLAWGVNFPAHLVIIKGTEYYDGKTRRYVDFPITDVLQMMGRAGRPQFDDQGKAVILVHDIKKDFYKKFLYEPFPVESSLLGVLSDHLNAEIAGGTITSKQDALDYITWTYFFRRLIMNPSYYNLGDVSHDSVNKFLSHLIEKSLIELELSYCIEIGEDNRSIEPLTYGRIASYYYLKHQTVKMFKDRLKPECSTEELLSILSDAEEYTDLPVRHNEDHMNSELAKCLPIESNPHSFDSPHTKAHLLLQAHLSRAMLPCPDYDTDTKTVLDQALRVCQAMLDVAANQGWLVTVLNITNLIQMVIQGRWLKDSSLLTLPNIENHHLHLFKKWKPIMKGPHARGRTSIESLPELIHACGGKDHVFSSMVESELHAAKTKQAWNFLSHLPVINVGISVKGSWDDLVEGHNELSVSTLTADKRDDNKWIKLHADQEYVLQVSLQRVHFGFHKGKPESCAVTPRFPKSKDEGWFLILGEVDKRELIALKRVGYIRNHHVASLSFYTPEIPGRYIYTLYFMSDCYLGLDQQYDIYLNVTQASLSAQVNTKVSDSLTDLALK

B1: HA-ASCC2 (protein, UniProt Q9H1I8 1-757)
chain: MPALPLDQLQITHKDPKTGKLRTSPALHPEQKADRYFVLYKPPPKDNIPALVEEYLERATFVANDLDWLLALPHDKFWCQVIFDETLQKCLDSYLRYVPRKFDEGVASAPEVVDMQKRLHRSVFLTFLRMSTHKESKDHFISPSAFGEILYNNFLFDIPKILDLCVLFGKGNSPLLQKMIGNIFTQQPSYYSDLDETLPTILQVFSNILQHCGLQGDGANTTPQKLEERGRLTPSDMPLLELKDIVLYLCDTCTTLWAFLDIFPLACQTFQKHDFCYRLASFYEAAIPEMESAIKKRRLEDSKLLGDLWQRLSHSRKKLMEIFHIILNQICLLPILESSCDNIQGFIEEFLQIFSSLLQEKRFLRDYDALFPVAEDISLLQQASSVLDETRTAYILQAVESAWEGVDRRKATDAKDPSVIEEPNGEPNGVTVTAEAVSQASSHPENSEEEECMGAAAAVGPAMCGVELDSLISQVKDLLPDLGEGFILACLEYYHYDPEQVINNILEERLAPTLSQLDRNLDREMKPDPTPLLTSRHNVFQNDEFDVFSRDSVDLSRVHKGKSTRKEENTRSLLNDKRAVAAQRQRYEQYSVVVEEVPLQPGESLPYHSVYYEDEYDDTYDGNQVGANDADSDDELISRRPFTIPQVLRTKVPREGQEEDDDDEEDDADEEAPKPDHFVQDPAVLREKAEARRMAFLAKKGYRHDSSTAVAGSPRGHGQSRETTQERRKKEANKATRANHNRRTMADRKRSKGMIPS
B2: HA-TRIP4 (protein, UniProt Q15650 1-581)
chain: MAVAGAVSGEPLVHWCTQQLRKTFGLDVSEEIIQYVLSIESAEEIREYVTDLLQGNEGKKGQFIEELITKWQKNDQELISDPLQQCFKKDEILDGQKSGDHLKRGRKKGRNRQEVPAFTEPDTTAEVKTPFDLAKAQENSNSVKKKTKFVNLYTREGQDRLAVLLPGRHPCDCLGQKHKLINNCLICGRIVCEQEGSGPCLFCGTLVCTHEEQDILQRDSNKSQKLLKKLMSGVENSGKVDISTKDLLPHQELRIKSGLEKAIKHKDKLLEFDRTSIRRTQVIDDESDYFASDSNQWLSKLERETLQKREEELRELRHASRLSKKVTIDFAGRKILEEENSLAEYHSRLDETIQAIANGTLNQPLTKLDRSSEEPLGVLVNPNMYQSPPQWVDHTGAASQKKAFRSSGFGLEFNSFQHQLRIQDQEFQEGFDGGWCLSVHQPWASLLVRGIKRVEGRSWYTPHRGRLWIAATAKKPSPQEVSELQATYRLLRGKDVEFPNDYPSGCLLGCVDLIDCLSQKQFKEQFPDISQESDSPFVFICKNPQEMVVKFPIKGNPKIWKLDSKIHQGAKKGLMKQNKAV

Tests used:
[1] = molecular target: 3FLAG tagged ASCC3 (human) (UniProt Q8N3C0); experiment: co-IP; Lenti-X 293T lysate, 3FLAG-ASCC3 captured on anti-DYKDDDDK tag antibody beads, washed with 300 mM NaCl, 1% NP-40 buffer, eluted with FLAG peptide
[2] = molecular target: ASCC3-K505R ATPase activity deficient variant (human) (UniProt Q8N3C0); experiment: as above

binding [1]	binding [2]	Binder
binds	binds	B1
binds	binds	B2
